Laboratory results: PubChem BioAssay AID652243 (Drosophila RNAi Screening Center, 2013)
Screen: 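Fly genes required for human androgen receptor driven transcription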 (primary screen). Cells: Drosophila S2R+ cells. Knock-down reagent: long dsRNA against Drosophila genes. Duration: 72 h (48 h, then 24 h hormone). Challenge: synthetic androgen R1881 at 10 nM for 24 h. Measurement: 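Per-well raw luminescence of the androgen-driven firefly reporter and of the Renilla control, two replicates each, without normalisation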. Direction: firefly reporter light: higher = more light from androgen-responsive reporter; Renilla control light: higher = more constitutive control signal (cell number, transfection). Call rule: 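Hit when the log firefly-to-Renilla ratio dropped or increased by a fixed fold versus the mean of GFP or LacZ controls across duplicate plates; lowering cut given as 1.5 and as 3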. Calls: active = hit: reporter lowered or raised; inactive = no hit.
The screen tested about 24,000 reagents; below is an unselected part of those with a known target gene and a result. Of all reagents, 246 (1%) got an active call. 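Plates not normalised; calls are printed but the firefly/Renilla ratio behind them is not deposited; fold cut for lowering reported inconsistently.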 The raw values are shown without normalisation. A number with no mark means an inactive call. Reagents against one gene are numbered here. Not given: the amount of reagent.

| gene knocked down | dsRNA no. | firefly reporter light, replicate 1 | firefly reporter light, replicate 2 | Renilla control light, replicate 1 | Renilla control light, replicate 2 |
| --- | --- | --- | --- | --- | --- |
| CG42676 (GeneID 2768999) | 1 | 62022 | 1.02e5 | 1.30e6 | 1.79e6 |
| CG42676 (GeneID 2768999) | 2 | 8.83e5 | 1.08e6 | 1.07e6 | 1.13e6 |
| CG13251 (GeneID 40286) | 1 | 2.01e5 | 1.37e5 | 1.86e6 | 1.64e6 |
| CG13251 (GeneID 40286) | 2 | 2.73e5 | 3.24e5 | 3.90e5 | 3.76e5 |
| aub (GeneID 34524) | 1 | 8.99e5 | 4.84e5 | 2.15e6 | 1.70e6 |
| aub (GeneID 34524) | 2 | 3.70e5 | 3.23e5 | 7.09e5 | 5.87e5 |
| Rubicon (GeneID 31803) | 1 | 2.35e5 | 2.98e5 | 2.29e6 | 2.84e6 |
| Rubicon (GeneID 31803) | 2 | 2.04e5 | 2.31e5 | 7.79e5 | 7.79e5 |
| CG6813 (GeneID 41396) | 1 | 1.16e5 | 1.25e5 | 1.96e6 | 1.97e6 |
| Sec71 (GeneID 34785) | 1 | 2.37e5 | 1.80e5 | 1.58e6 | 1.76e6 |
| Snx21 (GeneID 33466) | 1 | 1.11e6 | 9.62e5 | 3.45e6 | 2.39e6 |
| Snx21 (GeneID 33466) | 2 | 3.20e5 | 6.20e5 | 5.71e5 | 1.13e6 |
| lva (GeneID 31350) | 1 | 1.33e5 | 82827 | 1.36e6 | 6.07e5 |
| lva (GeneID 31350) | 2 | 1.87e5 | 2.25e5 | 4.99e5 | 5.74e5 |
| Cap-H2 (GeneID 41289) | 1 | 90044 | 1.35e5 | 6.34e5 | 6.80e5 |

The list goes on; the last 2 above are carried over.
| gene knocked down | dsRNA no. | firefly reporter light, replicate 1 | firefly reporter light, replicate 2 | Renilla control light, replicate 1 | Renilla control light, replicate 2 |
| --- | --- | --- | --- | --- | --- |
| lva (GeneID 31350) | 2 | 1.87e5 | 2.25e5 | 4.99e5 | 5.74e5 |
| Cap-H2 (GeneID 41289) | 1 | 90044 | 1.35e5 | 6.34e5 | 6.80e5 |
| Agpat3 (GeneID 39820) | 1 | 43154 | 51371 | 5.64e5 | 4.47e5 |
| Muc68E (GeneID 2768990) | 1 | 4.18e5 | 6.28e5 | 1.57e6 | 2.19e6 |
| Muc68E (GeneID 2768990) | 2 | 2.35e5 | 3.44e5 | 5.43e5 | 5.24e5 |
| CG5614 (GeneID 41906) | 1 | 5.80e5 | 5.19e5 | 3.19e6 | 2.65e6 |
| CG3746 (GeneID 37593) | 1 | 2.84e5 | 3.60e5 | 2.10e6 | 2.00e6 |
| CG3746 (GeneID 37593) | 2 | 1.21e6 | 1.06e6 | 1.54e6 | 1.68e6 |
| Dark (GeneID 36914) | 1 | 9.48e5 | 8.81e5 | 1.71e6 | 1.12e6 |
| Dark (GeneID 36914) | 2 | 3.80e5 | 1.85e5 | 4.87e5 | 6.05e5 |
| Pabp2 (GeneID 35788) | 1 | 94341 | 1.18e5 | 6.16e5 | 5.63e5 |
